Laboratory results as given in patent publication US5196446A (priority 1991, dated 1993).
At least one structure is not confirmed: it was looked up by name or label, or the drawing left a doubt.

Target: PDGF receptor kinase
Test: Inhibition of autophosphorylation, procedure repeated with PDGF stimulation (selectivity)
Format: biochemical
Settings: PDGF stimulation in place of EGF stimulation

SMILES: N#CC(=Cc1ccc2c(c1)OCO2)c1ccccn1 [Example 8, 2-(2-pyridyl)-3-[3,4-(methylenedioxy)phenyl]-2-propenenitrile]
- IC50: 20 µM
